{"sequences": {"note": "Chains of the proteins cited; added tags and fusions are not shown.", "UniProt P35462, whole entry, looked up": "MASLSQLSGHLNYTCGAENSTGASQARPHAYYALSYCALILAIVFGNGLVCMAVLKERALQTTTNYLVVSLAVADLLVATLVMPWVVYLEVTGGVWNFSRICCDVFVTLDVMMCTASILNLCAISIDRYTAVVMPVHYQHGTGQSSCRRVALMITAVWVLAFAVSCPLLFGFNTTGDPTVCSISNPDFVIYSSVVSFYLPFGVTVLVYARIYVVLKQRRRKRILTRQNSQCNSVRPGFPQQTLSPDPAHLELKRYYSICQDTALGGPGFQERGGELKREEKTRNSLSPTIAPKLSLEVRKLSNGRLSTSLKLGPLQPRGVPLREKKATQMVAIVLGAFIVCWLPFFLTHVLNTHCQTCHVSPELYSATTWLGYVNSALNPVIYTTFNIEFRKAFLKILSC"}, "source": "PubChem BioAssay AID652054", "about": "(National Center for Advancing Translational Sciences (NCATS), 2013)", "note": "Hit rate of the full screen: of about 360,000 compounds, about 9,100 (2.5%) were called active. The shares of active, inactive and inconclusive entries below differ from those in the screen. No stated cut-off is given here; in the data, active means max response below about -50%; inconclusive means no clear call, values can overlap the other calls; inactive means above that. On the % scale 0 is the no-effect control and ±100 the full control effect."}
{"biological_target": "D(3) dopamine receptor (Homo sapiens) (UniProt P35462)", "assay": "qHTS of D3 Dopamine Receptor Antagonist: qHTS", "details": "D3R cells, DiscoveRx beta-arrestin luminescence, antagonist mode; active compounds read low", "how_it_was_run": "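Cells expressing the human receptor were seeded at 1500 cells/well, incubated overnight at 37 degrees C in 5% CO2, then exposed to library compounds with dopamine controls for 90 minutes at 37 degrees C before luminescent detection.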"}
{"smiles": "CCCCN1CCN=C1Nc1ccccc1", "max response, negative = inhibition": "inactive: -10.9%"}
{"smiles": "Brc1cccc(-c2nnc3sc(CNC4CCCC4)cn23)c1", "max response, negative = inhibition": "inconclusive: -41.1%"}
{"smiles": "O=C(NNS(=O)(=O)c1ccc(Br)cc1)NC1CCCCC1", "max response, negative = inhibition": "inconclusive: -34.2%"}
{"smiles": "COC(=O)c1[nH]c2ccc(F)cc2c1NC(=O)Nc1ccc(OC)cc1", "max response, negative = inhibition": "inconclusive: -35.7%"}
{"smiles": "CCc1nnc(NS(=O)(=O)c2ccc(NC(=S)NC(=O)c3ccc(Br)cc3)cc2)s1", "max response, negative = inhibition": "active: -65.4%"}
{"smiles": "O=C(c1ccccc1)N1CCN(CC#CC2(O)CCCCC2)CC1", "max response, negative = inhibition": "inconclusive: -31.2%"}
{"smiles": "CCC(=O)Nc1nonc1-c1nc2ccccc2n1N(C(=O)CC)C(=O)CC", "max response, negative = inhibition": "inactive: 0%"}
{"smiles": "COc1ccc(-c2[nH]ncc2CN(C)Cc2cnccn2)c(OC)c1", "max response, negative = inhibition": "inconclusive: -42.4%"}
{"smiles": "O=C(O)c1nn(-c2ccccc2)nc1-c1nn(-c2ccccc2)nc1C(=O)O", "max response, negative = inhibition": "inconclusive: -43.1%"}
{"smiles": "COC(=O)c1ccc(NC(=O)c2nc(S(=O)(=O)Cc3cccc(C)c3)ncc2Cl)cc1", "max response, negative = inhibition": "active: -53.1%"}
{"smiles": "O=C1/C(=C\\c2ccc3ccccc3c2)CCCc2ccccc21", "max response, negative = inhibition": "inactive: 1.87%"}
{"smiles": "COCCCNCCCOc1ccc(Cl)cc1C(C)(C)C", "max response, negative = inhibition": "inconclusive: -49%"}
{"smiles": "Cc1cc(NC(=O)CSCC(=O)Nc2cc(C(F)(F)F)ccc2N2CCCCC2)no1", "max response, negative = inhibition": "inconclusive: -32.1%"}
{"smiles": "COc1cccc(C2c3[nH]c4ccccc4c3C[C@H]3C(=O)N(C4CCN(Cc5ccccc5)CC4)CC(=O)N23)c1", "note": "(some centres not stated)", "max response, negative = inhibition": "inconclusive: -44.1%"}
{"smiles": "COc1ccc(C)cc1S(=O)(=O)NCC(c1ccc2c(c1)OCO2)N1CCN(C)CC1", "note": "(configuration not stated)", "max response, negative = inhibition": "inactive: 26%"}
{"smiles": "COc1nccnc1NS(=O)(=O)c1ccc(NC(=S)NC(=O)c2ccccc2)cc1", "max response, negative = inhibition": "inconclusive: -42%"}
{"smiles": "CSc1ccc(Cn2c(C)c(C(=O)NCc3ccc(F)cc3)sc2=O)cc1", "max response, negative = inhibition": "inactive: -16.5%"}
{"smiles": "O=C(CSc1ncnc2sc3c(c12)CCCC3)c1ccco1", "max response, negative = inhibition": "inactive: 0%"}
{"smiles": "O=C(C1CC1)N1CCc2cc(S(=O)(=O)N3CCCc4ccccc43)ccc21", "max response, negative = inhibition": "inactive: -24.7%"}
{"smiles": "CCN(CCO)c1ccc(N=Nc2cc(C)[nH]n2)cc1", "max response, negative = inhibition": "active: -51.6%"}
{"smiles": "COc1ccc2c(c1)OC[C@H]1[C@H]2N2C(=O)c3cc(F)ccc3NC(=O)[C@@]2(C)[C@H]1c1ccccc1", "max response, negative = inhibition": "inconclusive: -35%"}
{"smiles": "CCN(CC)C(=O)c1scc2c1OCCO2", "max response, negative = inhibition": "inconclusive: -34%"}
{"smiles": "CCOC(=O)C1=NN(c2ccc(Cl)cc2)C(=O)C1", "max response, negative = inhibition": "inactive: -25.4%"}
{"smiles": "COc1ccc(Cl)cc1NC(=S)NCCc1ccc(F)cc1", "max response, negative = inhibition": "inconclusive: -32.9%"}
{"smiles": "Fc1ccc2c(c1)Sc1ccc(Cl)cc1CC2N1CCN(CCC2OCCO2)CC1", "note": "(configuration not stated)", "max response, negative = inhibition": "active: -93.3%"}
{"smiles": "Cc1cc2ccccn2c1C(=O)c1ccc(NN)c([N+](=O)[O-])c1", "max response, negative = inhibition": "inconclusive: -42.6%"}
{"smiles": "CC(C)C[C@@H](CN1CCC[C@H]1CN1C(=O)C(=O)NC[C@@H]1Cc1ccccc1)N1C[C@H](Cc2ccccc2)N(CC2CCCCC2)C(=O)C1=O", "max response, negative = inhibition": "inconclusive: -41.1%"}
{"smiles": "CN(C)CCCNc1ncnc2oc(-c3ccccc3)c(-c3ccccc3)c12", "max response, negative = inhibition": "inconclusive: -46%"}
{"smiles": "Cn1c(=O)cc(N2CCN(C(=O)c3ccco3)CC2)[nH]c1=O", "max response, negative = inhibition": "active: -113%"}
{"smiles": "COCCc1ccc(OC2(C)CCN(Cc3ccc(OC)c4ccccc34)C2)cc1", "note": "(configuration not stated)", "max response, negative = inhibition": "inactive: 2.38%"}
{"smiles": "O=Cc1c(Sc2ccccn2)nc2ccccn2c1=O", "max response, negative = inhibition": "active: -51.7%"}
{"smiles": "CC1=NN(C(=O)c2ccc(Cn3nc(C)c([N+](=O)[O-])c3C)o2)C(O)(C(F)(F)F)C1", "note": "(configuration not stated)", "max response, negative = inhibition": "inconclusive: -47.9%"}
{"smiles": "Cn1cnc([N+](=O)[O-])c1S(=O)(=O)c1cccc(Cl)c1", "max response, negative = inhibition": "active: -92.1%"}
{"smiles": "CC(=O)NN1C(=O)/C(=C\\c2ccc(Br)o2)SC1=S", "max response, negative = inhibition": "active: -59.4%"}
{"smiles": "O=c1c2cnn(-c3ccccc3)c2nc(-c2ccco2)n1-c1ccccc1", "max response, negative = inhibition": "inconclusive: -32%"}
{"smiles": "CCOC(=O)c1nn(C)c(C)c1Cl", "max response, negative = inhibition": "active: -71.3%"}
{"smiles": "CCOC(=O)C1=CC[C@@H](c2ccccc2)N(S(=O)(=O)c2ccc(C)cc2)[C@H]1C", "max response, negative = inhibition": "inconclusive: -31.4%"}
{"smiles": "COc1cc(/C=N/NC(=O)c2ccc(Cn3cc([N+](=O)[O-])cn3)o2)cc(Br)c1O", "max response, negative = inhibition": "inactive: -20.2%"}
{"smiles": "NC(N)=NCC(O)CN(c1ccccc1)c1ccccc1", "note": "(configuration not stated)", "max response, negative = inhibition": "inactive: 0.446%"}
{"smiles": "S=C(NCCc1ccccc1)N1CCN(Cc2ccccc2)CC1", "max response, negative = inhibition": "inconclusive: -48.9%"}
{"smiles": "COc1ccccc1N(CC(N)=O)S(=O)(=O)c1ccc(C)cc1", "max response, negative = inhibition": "active: -76.5%"}
{"smiles": "COc1ccc(-c2nnc(-c3ccccc3O)o2)cc1", "max response, negative = inhibition": "inconclusive: -39.3%"}
{"smiles": "S=C(NCCN(C1CCCCC1)C1CCCC1)Nc1cccc(Cl)c1", "max response, negative = inhibition": "active: -102%"}
{"smiles": "CC(NC(=O)c1ccccc1Br)c1nnc(SCc2ccc([N+](=O)[O-])cc2)n1C", "note": "(configuration not stated)", "max response, negative = inhibition": "inconclusive: -32.5%"}
{"smiles": "Cn1c(-c2sc3ccccc3c2Cl)n[nH]c1=S", "max response, negative = inhibition": "active: -75.7%"}
{"smiles": "O=C(CCl)N1c2ccccc2Sc2c1ccc1ccccc21", "max response, negative = inhibition": "inconclusive: -48.1%"}
{"smiles": "O=C(COc1ccc(Cl)cc1)NCCNC(=O)c1ccccn1", "max response, negative = inhibition": "inactive: 7.36%"}
{"smiles": "O=C(CSc1ccc(Cl)cc1)Nc1cccc(-c2nc3ccccc3[nH]2)c1", "max response, negative = inhibition": "inconclusive: -33.5%"}
{"smiles": "COc1ccccc1N(CC(=O)NCCSCc1ccc(Cl)cc1)S(C)(=O)=O", "max response, negative = inhibition": "inactive: 1.87%"}
{"smiles": "CCOc1c(Cl)cc(CNCC(C)C)cc1OC", "max response, negative = inhibition": "inactive: 17.8%"}
{"smiles": "CCN(CC)S(=O)(=O)c1ccc(S(=O)(=O)Nc2ccc3c(c2)oc2ccccc23)cc1", "max response, negative = inhibition": "active: -58.5%"}
{"smiles": "Nc1nnc(CC(=O)N/N=C/c2cccc(OCCOc3ccccc3)c2)s1", "max response, negative = inhibition": "inconclusive: -30.4%"}
{"smiles": "Oc1ccc(Br)c(CN2CCN(c3ncc(Cc4ccccc4)cn3)CC2)c1", "max response, negative = inhibition": "inactive: -19%"}
{"smiles": "NS(=O)(=O)c1ccc(NC(=S)Nc2ccn(Cc3cccc4ccccc34)n2)cc1", "max response, negative = inhibition": "inconclusive: -34.1%"}
{"smiles": "CC(C)CNC(=O)C1(C)CCCN1C(=O)c1cccnc1", "note": "(configuration not stated)", "max response, negative = inhibition": "inconclusive: -32.6%"}
{"smiles": "COc1ccc(OC)c(NC(=O)C2C3CCC(C3=C(C)C)C2C(=O)O)c1", "note": "(configuration not stated)", "max response, negative = inhibition": "inconclusive: -32.4%"}
{"smiles": "Cc1ccc(-n2nc(C)c(C3(O)C(=O)N(C(C)C)c4ccccc43)c2N)cc1", "note": "(configuration not stated)", "max response, negative = inhibition": "inactive: 18%"}
